Here are results for two sequences from patent US20220195418.

The data set concerns the target T7 RNA polymerase P314T (starting PACE enzyme) (bacteriophage T7) (UniProt P00573). In words: activity in cells. Conditions: protein in cells, only the site is given.

As to “AATTAACCCTCACTAAA (double strand) [T3 promoter]”, the activity on this sequence (lacZ reporter, undetectable, relative to starting RNAP on T7 promoter) is under 3%.

Sequence “TAATACGACTCACTATAAAAAAA (double strand) [T7 promoter iA6 (A at +1 to +6)]” returned an activity on this sequence (undetectable initial activity of starting RNAP, variant of T7 promoter) of under 3%.
